For 1 compound, IC50 results are on record in patent publication EP4000606A1, “COMPOUNDS FOR CORONAVIRUS INFECTION TREATMENT AND/OR PREVENTION” (priority 2020, dated 2022).

The experiment has as its system SARS-CoV-2. The experiment in a line: microbe, parasite or virus in culture. The experiment is classed as cell-based. The settings on record: Severe acute respiratory syndrome coronavirus 2, 120 h.

For orientation: IC50 means the concentration needed to halve the response being measured. A lower IC50 goes with higher potency. As for `Nc1ccc(C(=O)Nc2cccc(-c3nc(N4CCOCC4)c4oc5ncccc5c4n3)c2)cn1` [compound 104, 6-Amino-N-[3-[4-(4-morpholinyl)pyrido[3',2':4,5]furo [3,2-d]pyrimidin-2-yl]phenyl]pyridine-3-carboxamide], the concentration for half-maximal inhibition (IC50) was 4.73 µM.
